{"source": "PubChem BioAssay AID651956", "about": "(Broad Institute, 2012)", "note": "Inconclusive results, whose numbers are uncertain, are shown with a selection of clear calls. Activity calls are given as the source filed them.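 Rule for the calls: active = in every test run, a fitted half-maximal concentration for signal decrease at or below twice the highest tested concentration; inconclusive = runs disagree, flat 30 to 70% decrease, or poor fit; inactive = the rest.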", "data": [{"test": "miR-122 activators in hepatoma reporter cells, dose response, cell-based, Huh7 psiCHECK-miR122, Renilla luciferase, cherry-picked (AID 651956);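 note: Renilla luciferase from a miR-122 sensor reporter so lower signal means miR-122 activation; 0% = median neutral control wells and -100% = median positive control wells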", "conditions": "48 h; at 35 µM (top of the series) unless noted", "values": [{"smiles": "CCC(=O)N1[C@H](CO)[C@@H](c2ccccc2)[C@@H]1CN(C(C)C)S(C)(=O)=O", "activity change, negative = signal decrease": "inconclusive: -46.7%"}, {"smiles": "CCCNC(=O)Nc1ccc2c(c1)OC[C@@H](C)N(CCC)C[C@H](C)[C@H](OC)CN(C)C2=O", "activity change, negative = signal decrease": "inconclusive: -47.6%"}, {"smiles": "CN1C(=O)c2cc(NC(=O)c3cccc(F)c3)ccc2OC[C@@H]2O[C@H](CC(=O)Nc3ccccc3)CC[C@H]21", "activity change, negative = signal decrease": "inconclusive: -47.3%"}, {"smiles": "COC(=O)C[C@@H]1CC[C@@H]2[C@@H](COc3ccc(NC(=O)c4cscn4)cc3C(=O)N2C)O1", "activity change, negative = signal decrease": "inconclusive: -15.8%"}, {"smiles": "CN(C[C@H]1N[C@@H](CO)[C@H]1c1ccc(-c2cccc(F)c2)cc1)C(=O)C1CCC1", "activity change, negative = signal decrease": "inactive: 282%"}, {"smiles": "Cc1cc(C(=O)Nc2ccc3c(c2)C(=O)N(C)[C@H]2CC[C@H](CC(=O)N[C@H](C)c4ccccc4)O[C@H]2CO3)no1", "activity change, negative = signal decrease": "inactive: 77.8%"}, {"smiles": "CC#CCCCC(=O)Nc1ccccc1C(=O)O", "activity change, negative = signal decrease": "inactive: -9.61%"}, {"smiles": "CCCNC(=O)C[C@H]1CC[C@H]2[C@H](COc3ccc(NC(=O)c4ccc(C(F)(F)F)cc4)cc3C(=O)N2C)O1", "activity change, negative = signal decrease": "inactive: 11.7%"}, {"smiles": "Cc1ccc(S(=O)(=O)Nc2ccc3c(c2)C(=O)N(C)[C@@H]2CC[C@H](CC(=O)NCCc4ccncc4)O[C@@H]2CO3)cc1", "activity change, negative = signal decrease": "inconclusive: -42.7%"}, {"smiles": "CN(C)C(=O)C[C@@H]1CC[C@@H]2[C@@H](COc3ccc(NC(=O)C4CC4)cc3C(=O)N2C)O1", "activity change, negative = signal decrease": "inactive: -4.71%"}, {"smiles": "COCC(=O)Nc1ccc2c(c1)C(=O)N(C)[C@H]1CC[C@@H](CC(=O)NCCCN(C)C)O[C@H]1CO2", "activity change, negative = signal decrease": "inconclusive: -41.2%"}, {"smiles": "CNC(=O)C[C@H]1CC[C@@H]2[C@@H](COc3ccc(NC(=O)c4cccc(OC)c4)cc3C(=O)N2C)O1", "activity change, negative = signal decrease": "inconclusive: -38.9%"}, {"smiles": "CC(=O)N1[C@H](CN(C(=O)c2ccc(F)cc2)C(C)C)[C@@H](c2ccccc2)[C@@H]1CO", "activity change, negative = signal decrease": "inactive: 6.52%"}, {"smiles": "O=C(CC(F)(F)F)N1C[C@@H]2[C@H](c3ccccc31)[C@@H](CO)N2C(=O)C1CCCC1", "activity change, negative = signal decrease": "inactive: -32.5%"}, {"smiles": "CNC(=O)C[C@H]1CC[C@@H]2[C@H](COc3ccc(NC(=O)Nc4ccc(F)c(F)c4)cc3C(=O)N2C)O1", "activity change, negative = signal decrease": "inconclusive: -43.9%"}, {"smiles": "Cc1nn(C)cc1NC(=O)C[C@H]1CC[C@@H]2[C@H](COc3ccc(NC(=O)Nc4cccc(Cl)c4)cc3C(=O)N2C)O1", "activity change, negative = signal decrease": "inconclusive: -49.2%"}, {"smiles": "CC(C)c1ccc(CNC(=O)CSCC(=O)Nc2ccc3ccccc3c2)cc1", "activity change, negative = signal decrease": "inactive: -18.8%"}, {"smiles": "O=C(NC[C@H]1[C@H](c2ccccc2)[C@@H](CO)N1Cc1ccccn1)C1CC1", "activity change, negative = signal decrease": "inactive: -15.8% [at 30 µM]"}, {"smiles": "COc1cccc(NC(=O)N[C@H]2CC[C@H](CC(=O)Nc3ccc(-c4ccccc4)cc3)O[C@@H]2CO)c1", "activity change, negative = signal decrease": "inconclusive: -53.9% [at 30 µM]"}, {"smiles": "COC(=O)C[C@@H]1CC[C@@H]2[C@H](COc3ccc(NC(=O)c4cc(F)cc(F)c4)cc3C(=O)N2C)O1", "activity change, negative = signal decrease": "inconclusive: -49.2%"}, {"smiles": "Cc1cc(C)n(C(=O)Cn2nc(C)c(Br)c2C)n1", "activity change, negative = signal decrease": "inactive: 28.7%"}, {"smiles": "C/C=C/c1ccc([C@@H]2[C@@H](CO)N[C@@H]2CN(CC(C)C)C(=O)c2ccccn2)cc1", "activity change, negative = signal decrease": "inconclusive: -71.1%"}, {"smiles": "C/C=C/c1ccc([C@@H]2[C@@H](CNC(=O)CC)N(Cc3ccccn3)[C@H]2CO)cc1", "activity change, negative = signal decrease": "inconclusive: -25.8%"}, {"smiles": "C/C=C/c1ccc([C@H]2[C@@H](CO)N(C(=O)COC)[C@H]2CNC(=O)CC)cc1", "activity change, negative = signal decrease": "inconclusive: -26.7%"}, {"smiles": "C/C=C/c1ccc([C@@H]2[C@@H](CO)N[C@@H]2CN(C(=O)C2CCC2)C(C)C)cc1", "activity change, negative = signal decrease": "inconclusive: -36.8%"}, {"smiles": "CNC(=O)C[C@H]1CC[C@@H]2[C@H](COc3ccc(NC(=O)c4cccc(OC)c4)cc3C(=O)N2C)O1", "activity change, negative = signal decrease": "inconclusive: -31.1%"}, {"smiles": "CCCC(=O)Nc1ccc2c(c1)C(=O)N(C)[C@@H]1CC[C@H](CC(=O)NCCN3CCCCC3)O[C@H]1CO2", "activity change, negative = signal decrease": "inconclusive: -43.1%"}, {"smiles": "O=c1c2c3c(sc2nc2n1CCC2)CCCC3", "activity change, negative = signal decrease": "inconclusive: -38.5%"}, {"smiles": "COC(=O)C[C@@H]1CC[C@@H]2[C@@H](COc3ccc(NS(=O)(=O)c4ccccc4F)cc3C(=O)N2C)O1", "activity change, negative = signal decrease": "inactive: -2.68%"}, {"smiles": "CCS(=O)(=O)Nc1ccc2c(c1)C(=O)N(C)[C@@H]1CC[C@@H](CC(=O)NCCCN3CCOCC3)O[C@@H]1CO2", "activity change, negative = signal decrease": "inconclusive: -31.2%"}, {"smiles": "CCN(C[C@@H]1[C@@H](c2ccccc2)[C@H](CO)N1C(C)=O)C(=O)NC(C)C", "activity change, negative = signal decrease": "inconclusive: -26.1%"}, {"smiles": "Cc1ccc(C(=O)n2nc(-c3ccccc3)nc2NCc2ccco2)cc1", "activity change, negative = signal decrease": "inactive: 64.8%"}, {"smiles": "COc1ccc2[nH]c(C(=O)O)c(NS(=O)(=O)c3ccc(Cl)s3)c2c1", "activity change, negative = signal decrease": "inconclusive: -15.8%"}, {"smiles": "COCC(=O)N1[C@H](CO)[C@@H](c2ccccc2)[C@H]1CNC(=O)c1ccccn1", "activity change, negative = signal decrease": "inactive: 15.5%"}, {"smiles": "Cc1nn(C)cc1NC(=O)C[C@@H]1CC[C@@H]2[C@H](COc3ccc(NC(=O)Nc4cccc(Cl)c4)cc3C(=O)N2C)O1", "activity change, negative = signal decrease": "inconclusive: -53.9%"}]}]}
